Measurements from “University of Dundee, Small-Polar-MMV Screening Library” (2021), ChEMBL document CHEMBL3988442.

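Whole-cell growth test on Mycobacterium tuberculosis, read after 3 days in glucose-containing 7H9 medium; the read-out is not stated. Compounds at 50 µM. Higher reads as more growth inhibition (inferred: compounds with an IC50 in retests scored well above the rest). Of about 69,000 compounds tested this way, about 760 (1.1%) reached 50% or more in at least one test.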

Results are given as percent effect.
How 0% and 100% were set is not recorded. Most values in the screen are low, and negative values occur.
Compounds were drawn at random from those tested, without regard to their results.
Two or more numbers in one place are separate tests of the same structure; such repeats can differ widely.

For Cc1cc(O)n2nc(C3CCN(C(=O)c4ccccn4)CC3)cc2n1 the result was 25.14%.
For CN(Cc1ccc(F)cc1)Cc1cc2c(cc1Br)OCCO2 the result was 30.55%.
For Cc1cn[nH]c1C1COCCN1Cc1c[nH]cn1 (stereo unspecified) the result was 9.861%.
For CC(C)(C)N1CC(C(=O)N2CCN(CCn3cncn3)CC2)CC1=O (stereo unspecified) the result was -8.216%.
For Cc1cncc(NC(=O)c2ccc(CN3CCC(CO)CC3)cc2)c1 the result was 33.18%.
For CCCNC(=O)CSc1nnc2[nH]c(=O)c3c(n12)CCCC3 the result was 5.401% & -8.256%.
For COc1cc(C(=O)NS(=O)(=O)c2cccc(C#N)c2)ccc1C the result was -9.772%.
For Cc1cc(F)ccc1S(=O)(=O)N(C)CC(N)=O the result was -6.792%.
For CCn1nc(C)c2nnn(CC(=O)Nc3ccccc3)c(=O)c21 the result was 38.54%.
For Cc1nn(CCO)c(C)c1CNC1CCC(C)(C)c2ccccc21 (stereo unspecified) the result was 3.511%.
For CN(C)C(=O)COc1ccccc1CN1CCCC2(C1)CN(C)C(=O)O2 (stereo unspecified) the result was 3.139%.
For Cn1nc(Cn2ccnc2)c2c1CN(Cc1ccoc1)C2.O=C(O)C(F)(F)F.O=C(O)C(F)(F)F the result was -21.05% & -5.451%.
For CC(=O)N1CC(c2ccnc(Nc3ccc(C)cn3)n2)C1 the result was -9.106%.
For CN(C)Cc1cccc(-c2cccnc2C(=O)NCc2ccco2)c1 the result was -9.16%.
For O=c1[nH]c2c(-c3ccccn3)nsc2c(=O)n1C1CCCCC1 the result was -5.459%.
For CCC(=O)N1CCCC(C(=O)NCc2noc(Cc3ccccc3)n2)C1 (stereo unspecified) the result was -6.277% & 2.705%.
For Cc1cnc(-c2nc(NC3CCCC3)ncc2-c2onc(C)c2C)cn1 the result was 15.23%.
For CC(C(=O)N1CCCN(c2ncccc2C#N)CC1)n1cncn1 (stereo unspecified) the result was -1.801%.
For [H][C@@]12CN(C(=O)N(C)C)C[C@]1([H])C(=O)N(C)C21CCN(C(=O)C(C)C)CC1 the result was 3.429%.
For CCc1noc(CN(C)Cc2ccc(N3CCCCC3)cc2)n1 the result was 25.1%.
For c1cc(C2CCN(C3CCCCC3)C2)n[nH]1 (stereo unspecified) the result was -5.611%.
For CCc1ccsc1C(=O)N1CCN(CC(C)(C)O)CC1 the result was -14.14%.
For Cc1nc(CN2CCOCC3(CCN(c4cccnc4)CC3)C2)cs1.O=C(O)C(F)(F)F.O=C(O)C(F)(F)F the result was -33.16%.
For COc1ccc(OC)c(C2CCN(Cc3nc(C)n4ccccc34)C2)c1 (stereo unspecified) the result was 41.99%.
For Cc1cc2c(N3CCC(N(C)Cc4nccs4)CC3)ncnc2s1 the result was 27.22%.
For CC(=O)c1cccc(NC(=O)CCn2nc(-c3cccs3)oc2=O)c1 the result was 14.37%.
For CN(C)CC1CCCCN1C(=O)c1ccc(N2CCOCC2)cc1 (stereo unspecified) the result was 14.35%.
For O=C1COc2cc(C(=O)NS(=O)(=O)c3ccc(F)cc3)ccc2N1 the result was 21.86%.
For Cn1ccnc1CN1C[C@@H](CN2CCCCC2)[C@@H](CO)C1 the result was -7.051%.
For CC(C)NC(=O)[C@@H]1Cc2[nH]cnc2CN1CCCc1ccccc1 the result was 1.979% & 5.868%.
For O=C(Nc1ccc(CCN2CCC(O)CC2)cc1)Nc1cccnc1 the result was -2.256%.
For CCCS(=O)(=O)C(C)C(=O)Nc1ccc2oc(C3CC3)nc2c1 (stereo unspecified) the result was -5.331%.

The first 4 entries again:

* Cc1cc(O)n2nc(C3CCN(C(=O)c4ccccn4)CC3)cc2n1 : 25.14%
* CN(Cc1ccc(F)cc1)Cc1cc2c(cc1Br)OCCO2 : 30.55%
* Cc1cn[nH]c1C1COCCN1Cc1c[nH]cn1 (stereo unspecified) : 9.861%
* CC(C)(C)N1CC(C(=O)N2CCN(CCn3cncn3)CC2)CC1=O (stereo unspecified) : -8.216%